Laboratory results reported in the supplement of paper PMC12067093, “Discovery and optimisation of a covalent ligand for TRIM25 and its application to targeted protein ubiquitination” (Chemical Science, 2025).
The list shows a part of the results.

Sequences of proteins named here, by UniProt entry; tags and fusion partners are left off. A change or cut given only in a name is not applied to a line headed by its entry.
UniProt O95071: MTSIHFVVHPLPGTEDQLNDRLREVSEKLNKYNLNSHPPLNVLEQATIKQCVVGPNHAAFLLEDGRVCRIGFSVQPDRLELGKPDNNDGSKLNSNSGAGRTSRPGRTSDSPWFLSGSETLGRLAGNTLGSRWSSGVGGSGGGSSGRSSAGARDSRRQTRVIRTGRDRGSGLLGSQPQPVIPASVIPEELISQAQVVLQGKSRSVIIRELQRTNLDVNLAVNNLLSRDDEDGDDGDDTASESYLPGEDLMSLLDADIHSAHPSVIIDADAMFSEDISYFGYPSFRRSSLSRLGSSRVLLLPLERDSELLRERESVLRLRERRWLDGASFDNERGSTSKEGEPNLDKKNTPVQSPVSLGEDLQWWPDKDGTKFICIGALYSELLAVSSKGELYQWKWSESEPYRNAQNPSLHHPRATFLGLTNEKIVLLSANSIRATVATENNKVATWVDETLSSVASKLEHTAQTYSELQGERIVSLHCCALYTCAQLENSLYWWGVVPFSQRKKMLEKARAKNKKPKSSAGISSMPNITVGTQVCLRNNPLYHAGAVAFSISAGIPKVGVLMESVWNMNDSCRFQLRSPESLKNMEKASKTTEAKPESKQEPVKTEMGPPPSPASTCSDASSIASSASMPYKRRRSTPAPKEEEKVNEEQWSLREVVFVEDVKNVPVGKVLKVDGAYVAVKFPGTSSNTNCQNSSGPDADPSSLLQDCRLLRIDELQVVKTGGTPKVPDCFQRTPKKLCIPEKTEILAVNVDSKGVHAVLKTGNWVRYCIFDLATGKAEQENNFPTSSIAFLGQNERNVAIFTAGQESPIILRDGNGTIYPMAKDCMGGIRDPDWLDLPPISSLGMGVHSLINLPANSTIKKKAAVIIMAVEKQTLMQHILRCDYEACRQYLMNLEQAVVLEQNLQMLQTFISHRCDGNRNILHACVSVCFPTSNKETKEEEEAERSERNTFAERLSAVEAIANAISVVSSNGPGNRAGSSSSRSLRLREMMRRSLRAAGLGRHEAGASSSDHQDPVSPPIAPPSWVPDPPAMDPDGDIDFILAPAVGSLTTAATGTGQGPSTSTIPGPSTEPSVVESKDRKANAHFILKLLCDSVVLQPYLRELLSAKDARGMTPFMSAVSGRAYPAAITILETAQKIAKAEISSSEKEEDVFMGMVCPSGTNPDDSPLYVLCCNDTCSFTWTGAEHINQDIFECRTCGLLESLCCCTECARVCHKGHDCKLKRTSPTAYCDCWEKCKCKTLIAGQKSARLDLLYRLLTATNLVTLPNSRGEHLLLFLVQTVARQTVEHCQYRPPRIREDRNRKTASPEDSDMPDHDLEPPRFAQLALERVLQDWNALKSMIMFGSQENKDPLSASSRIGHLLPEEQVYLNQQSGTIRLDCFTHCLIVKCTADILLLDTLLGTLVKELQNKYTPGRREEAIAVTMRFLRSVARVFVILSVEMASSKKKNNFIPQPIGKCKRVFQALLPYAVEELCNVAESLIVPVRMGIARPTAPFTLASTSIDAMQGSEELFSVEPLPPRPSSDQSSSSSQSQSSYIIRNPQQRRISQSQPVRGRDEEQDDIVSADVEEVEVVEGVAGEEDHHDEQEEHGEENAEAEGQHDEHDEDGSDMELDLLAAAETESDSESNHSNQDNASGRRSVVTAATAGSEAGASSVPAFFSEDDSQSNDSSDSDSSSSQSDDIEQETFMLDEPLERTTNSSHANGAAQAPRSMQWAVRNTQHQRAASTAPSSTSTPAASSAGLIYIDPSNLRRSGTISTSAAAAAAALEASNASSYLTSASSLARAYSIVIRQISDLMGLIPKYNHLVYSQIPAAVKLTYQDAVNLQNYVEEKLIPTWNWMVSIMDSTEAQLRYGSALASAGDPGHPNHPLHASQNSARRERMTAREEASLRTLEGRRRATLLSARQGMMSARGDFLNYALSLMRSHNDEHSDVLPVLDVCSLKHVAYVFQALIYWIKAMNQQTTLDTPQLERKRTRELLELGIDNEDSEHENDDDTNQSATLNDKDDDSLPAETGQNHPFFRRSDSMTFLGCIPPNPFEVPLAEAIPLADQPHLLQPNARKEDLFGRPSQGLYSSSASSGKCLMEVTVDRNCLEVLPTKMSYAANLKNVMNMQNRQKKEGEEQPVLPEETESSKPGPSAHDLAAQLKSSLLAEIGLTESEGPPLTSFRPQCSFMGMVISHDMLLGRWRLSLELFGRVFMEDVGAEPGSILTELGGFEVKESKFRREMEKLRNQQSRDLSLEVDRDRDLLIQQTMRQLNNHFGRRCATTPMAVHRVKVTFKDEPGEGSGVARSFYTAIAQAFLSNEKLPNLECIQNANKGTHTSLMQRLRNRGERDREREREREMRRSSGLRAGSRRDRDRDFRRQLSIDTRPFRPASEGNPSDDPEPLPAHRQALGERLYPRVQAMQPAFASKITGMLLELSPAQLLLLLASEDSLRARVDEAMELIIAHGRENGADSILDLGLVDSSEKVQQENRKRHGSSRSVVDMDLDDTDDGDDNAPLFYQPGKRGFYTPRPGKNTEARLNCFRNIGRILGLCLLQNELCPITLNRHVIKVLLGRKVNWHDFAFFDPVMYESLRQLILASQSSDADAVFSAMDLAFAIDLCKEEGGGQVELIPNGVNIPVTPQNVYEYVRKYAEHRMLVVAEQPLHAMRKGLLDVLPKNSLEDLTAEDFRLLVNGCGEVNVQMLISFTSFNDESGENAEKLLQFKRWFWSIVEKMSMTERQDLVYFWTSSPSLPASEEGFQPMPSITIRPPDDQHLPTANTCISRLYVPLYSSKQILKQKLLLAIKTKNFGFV
UniProt Q9BZL1: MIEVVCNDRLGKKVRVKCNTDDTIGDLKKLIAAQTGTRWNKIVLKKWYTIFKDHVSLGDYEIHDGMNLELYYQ
UniProt Q05086: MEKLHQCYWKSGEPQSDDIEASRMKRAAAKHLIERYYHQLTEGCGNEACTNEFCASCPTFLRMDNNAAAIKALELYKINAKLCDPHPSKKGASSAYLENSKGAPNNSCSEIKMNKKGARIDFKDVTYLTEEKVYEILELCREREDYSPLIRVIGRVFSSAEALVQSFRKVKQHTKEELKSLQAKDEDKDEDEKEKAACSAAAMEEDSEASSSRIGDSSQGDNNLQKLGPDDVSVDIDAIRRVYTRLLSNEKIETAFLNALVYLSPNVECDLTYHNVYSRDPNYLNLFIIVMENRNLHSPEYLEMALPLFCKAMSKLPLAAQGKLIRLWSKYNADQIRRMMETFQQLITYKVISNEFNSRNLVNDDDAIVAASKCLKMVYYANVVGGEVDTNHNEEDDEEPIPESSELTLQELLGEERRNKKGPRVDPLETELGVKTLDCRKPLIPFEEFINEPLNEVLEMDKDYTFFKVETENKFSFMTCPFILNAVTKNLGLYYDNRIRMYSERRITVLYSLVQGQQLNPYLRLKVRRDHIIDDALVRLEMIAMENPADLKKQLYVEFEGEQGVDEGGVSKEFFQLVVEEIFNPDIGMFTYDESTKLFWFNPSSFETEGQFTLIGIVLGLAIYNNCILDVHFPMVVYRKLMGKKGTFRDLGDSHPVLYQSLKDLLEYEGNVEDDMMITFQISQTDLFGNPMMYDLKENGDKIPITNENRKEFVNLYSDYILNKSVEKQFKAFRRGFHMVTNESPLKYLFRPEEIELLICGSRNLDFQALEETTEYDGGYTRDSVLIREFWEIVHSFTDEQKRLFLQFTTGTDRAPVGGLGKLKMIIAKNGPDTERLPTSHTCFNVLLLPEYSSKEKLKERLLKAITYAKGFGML
UniProt P10599: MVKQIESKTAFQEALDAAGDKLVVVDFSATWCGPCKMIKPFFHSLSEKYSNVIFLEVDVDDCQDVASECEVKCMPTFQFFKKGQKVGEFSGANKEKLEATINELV
UniProt Q14157: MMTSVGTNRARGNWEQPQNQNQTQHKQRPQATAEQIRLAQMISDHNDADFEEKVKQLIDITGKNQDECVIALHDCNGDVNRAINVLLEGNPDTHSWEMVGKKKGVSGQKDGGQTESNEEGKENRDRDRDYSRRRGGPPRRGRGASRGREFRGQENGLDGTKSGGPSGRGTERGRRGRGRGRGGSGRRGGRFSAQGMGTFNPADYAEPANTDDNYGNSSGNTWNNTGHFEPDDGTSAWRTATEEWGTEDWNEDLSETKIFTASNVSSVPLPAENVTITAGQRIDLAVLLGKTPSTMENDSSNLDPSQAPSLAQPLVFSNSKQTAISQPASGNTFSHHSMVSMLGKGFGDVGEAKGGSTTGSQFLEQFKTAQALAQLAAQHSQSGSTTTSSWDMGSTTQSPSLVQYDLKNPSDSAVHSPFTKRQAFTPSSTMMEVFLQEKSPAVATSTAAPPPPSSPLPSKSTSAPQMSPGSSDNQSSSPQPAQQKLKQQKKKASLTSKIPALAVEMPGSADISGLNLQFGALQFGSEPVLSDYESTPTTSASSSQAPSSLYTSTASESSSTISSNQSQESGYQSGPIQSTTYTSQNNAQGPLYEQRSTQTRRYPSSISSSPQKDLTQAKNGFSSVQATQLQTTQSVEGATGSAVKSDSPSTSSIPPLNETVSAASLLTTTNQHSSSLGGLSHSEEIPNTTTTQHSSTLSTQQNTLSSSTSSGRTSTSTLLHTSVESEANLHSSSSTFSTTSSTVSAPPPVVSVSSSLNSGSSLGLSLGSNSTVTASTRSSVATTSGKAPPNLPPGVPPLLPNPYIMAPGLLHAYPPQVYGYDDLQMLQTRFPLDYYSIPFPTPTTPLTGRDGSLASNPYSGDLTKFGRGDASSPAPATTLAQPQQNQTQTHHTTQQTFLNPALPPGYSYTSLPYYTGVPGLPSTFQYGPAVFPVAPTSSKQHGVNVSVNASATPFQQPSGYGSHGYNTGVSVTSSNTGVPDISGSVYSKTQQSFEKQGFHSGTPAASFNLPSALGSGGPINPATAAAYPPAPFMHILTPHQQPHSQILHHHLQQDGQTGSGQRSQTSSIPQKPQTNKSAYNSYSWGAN
UniProt O15042: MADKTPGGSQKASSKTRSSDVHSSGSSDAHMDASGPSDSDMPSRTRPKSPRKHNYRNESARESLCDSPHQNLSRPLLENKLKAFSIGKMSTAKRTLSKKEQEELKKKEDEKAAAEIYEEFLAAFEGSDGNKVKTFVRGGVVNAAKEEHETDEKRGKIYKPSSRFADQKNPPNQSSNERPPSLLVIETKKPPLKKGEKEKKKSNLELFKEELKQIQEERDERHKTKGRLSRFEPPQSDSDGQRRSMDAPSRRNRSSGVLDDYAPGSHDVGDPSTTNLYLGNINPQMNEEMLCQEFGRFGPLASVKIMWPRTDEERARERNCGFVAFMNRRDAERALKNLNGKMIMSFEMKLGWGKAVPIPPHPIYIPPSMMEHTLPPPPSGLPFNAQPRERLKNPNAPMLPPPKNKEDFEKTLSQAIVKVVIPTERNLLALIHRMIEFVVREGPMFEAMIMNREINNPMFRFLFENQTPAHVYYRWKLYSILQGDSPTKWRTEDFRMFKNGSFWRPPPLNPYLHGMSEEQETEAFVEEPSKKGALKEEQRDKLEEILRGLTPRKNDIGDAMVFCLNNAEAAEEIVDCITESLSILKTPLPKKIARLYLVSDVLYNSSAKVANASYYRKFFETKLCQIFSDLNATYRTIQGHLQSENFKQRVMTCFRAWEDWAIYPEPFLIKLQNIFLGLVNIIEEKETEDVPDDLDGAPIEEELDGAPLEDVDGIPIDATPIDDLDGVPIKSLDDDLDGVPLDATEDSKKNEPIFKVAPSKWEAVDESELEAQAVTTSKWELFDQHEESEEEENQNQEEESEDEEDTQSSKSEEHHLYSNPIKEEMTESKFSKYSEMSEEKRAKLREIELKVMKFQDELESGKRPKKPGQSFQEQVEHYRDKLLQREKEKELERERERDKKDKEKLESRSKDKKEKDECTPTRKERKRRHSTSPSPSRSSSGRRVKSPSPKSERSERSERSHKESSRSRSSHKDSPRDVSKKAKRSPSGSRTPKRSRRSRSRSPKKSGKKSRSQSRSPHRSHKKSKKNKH
UniProt Q8TBC4: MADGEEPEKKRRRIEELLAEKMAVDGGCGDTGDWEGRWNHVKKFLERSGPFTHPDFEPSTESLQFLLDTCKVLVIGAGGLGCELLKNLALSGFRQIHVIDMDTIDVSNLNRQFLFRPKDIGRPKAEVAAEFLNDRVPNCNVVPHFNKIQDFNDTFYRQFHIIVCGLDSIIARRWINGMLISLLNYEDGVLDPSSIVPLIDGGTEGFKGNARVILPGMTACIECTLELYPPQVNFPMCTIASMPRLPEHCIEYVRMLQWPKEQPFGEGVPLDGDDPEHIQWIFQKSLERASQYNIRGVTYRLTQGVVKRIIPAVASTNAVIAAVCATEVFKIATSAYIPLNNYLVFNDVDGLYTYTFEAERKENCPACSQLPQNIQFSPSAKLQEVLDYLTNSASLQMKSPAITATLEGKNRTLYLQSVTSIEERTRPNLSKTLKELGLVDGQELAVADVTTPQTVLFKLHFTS
UniProt Q13404: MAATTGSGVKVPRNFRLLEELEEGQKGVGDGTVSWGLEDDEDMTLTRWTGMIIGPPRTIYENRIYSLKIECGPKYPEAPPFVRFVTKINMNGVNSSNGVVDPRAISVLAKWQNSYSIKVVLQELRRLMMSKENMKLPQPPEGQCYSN

Compound: Cc1cc(ccc1-c1ccccc1)C(=O)N1CCCN(CC1)C(=O)CCl [compound 10]
Assay: probe-labelled cysteine peptide fold change vs DMSO (competition) (log2 fold change); higher = less target engagement (more negative = stronger competition)
Conditions: THP-1, incubation time: 4 h
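Note: competitive profiling in live THP-1 cells: cysteine peptides tagged with an iodoacetamide desthiobiotin (IA-DTB) probe, intensity after compound treatment relative to DMSO-treated cells.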

| Target | probe-labelled cysteine peptide fold change (10 µM) | probe-labelled cysteine peptide fold change (50 µM) |
| --- | --- | --- |
| UBR5_O95071_1382+1386_LDCFTHCLIVK (UniProt O95071) | 0.285 | -0.444 |
| UBE2M_P61081_95_CETMVYHPNIDLEGNVCLNILR (UniProt P61081) | 0.0603 | -0.0752 |
| UBASH3B_Q8TF42_468_LVGEALLESNTIIDHVYCSPSLR (UniProt Q8TF42) | 0.035 | 0.0786 |
| UBA6_A0AVT1_231_EIFISNITQANPGIVTCLENHPHK | -0.117 | 0.131 |
| UBA6_A0AVT1_682_IQSGHSLEGCFQVIK | 0.141 | 0.172 |
| UBL5_Q9BZL1_6_MIEVVCNDR (UniProt Q9BZL1) | 0.108 | -0.685 |
| UBR1_Q8IWV7_1726_LHLVWQQHCIIEEIAR (UniProt Q8IWV7) | -0.0158 | -0.128 |
| UBE2E1_P51965_67_ELADITLDPPPNCSAGPK (UniProt P51965) | -0.0941 | 0.00198 |
| TYW1B_Q6NUM6_581_ELVDLIPEYEIACEHEHSNCLLIAHR (UniProt Q6NUM6) | -0.18 | 0.153 |
| TYK2_P29597_278_VPVCHLR (UniProt P29597) | -0.104 | -0.188 |
| UBE3A_Q05086_760_YLFRPEEIELLICGSR (UniProt Q05086) | 0.173 | -0.147 |
| TXN_P10599_32_LVVVDFSATWCGPCK (UniProt P10599) | -0.415 | -0.638 |
| UBR5_O95071_2084_CLMEVTVDR (UniProt O95071) | -0.0883 | -0.683 |
| UBA7_P41226_552_CTHYLK (UniProt P41226) | 0.0632 | -0.0584 |
| UBR7_Q8N806_137_YNDNFFGLYCICK (UniProt Q8N806) | 0.0481 | -0.0777 |
| UBE3A_Q05086_108_GAPNNSCSEIK (UniProt Q05086) | -0.138 | -0.789 |
| UBAP2L_Q14157_75_NQDECVIALHDCNGDVNR (UniProt Q14157) | 0.0576 | -0.12 |
| UBE2T_Q9NPD8_86_ICLDVLK (UniProt Q9NPD8) | -0.0694 | 0.175 |
| U2SURP_O15042_65_ESLCDSPHQNLSRPLLENK (UniProt O15042) | 0.167 | -0.428 |
| UBA3_Q8TBC4_139_AEVAAEFLNDRVPNCNVVPHFNK (UniProt Q8TBC4) | 0.0618 | -0.0531 |

| Target | probe-labelled cysteine peptide fold change (10 µM) | probe-labelled cysteine peptide fold change (50 µM) |
| --- | --- | --- |
| UBQLN4_Q9NRR5_29_DKEEIVICDR (UniProt Q9NRR5) | 0.0616 | -0.432 |
| UAP1L1_Q3KQV9_254_GVEFVHVYCVDNILVR (UniProt Q3KQV9) | 0.119 | 0.12 |
| UBP1_Q9NZI7_409_EDLVQICGAADGIR (UniProt Q9NZI7) | 0.109 | -0.0555 |
| UBR4_Q5T4S7_2619_QLEGDCCSFITQLVNHFWK (UniProt Q5T4S7) | -0.0425 | -0.45 |
| UBR1_Q8IWV7_1603_NSLIELPDDYSCLLNQASHFR (UniProt Q8IWV7) | -0.114 | -0.631 |
| TXNL1_O43396_64_YPQAVFLEVDVHQCQGTAATNNISATPTFLFFR (UniProt O43396) | -0.078 | 0.154 |
| TYMP_P19971_280+293_CVGHALEVEEALLCMDGAGPPDLR (UniProt P19971) | 0.167 | 0.0257 |
| UBR4_Q5T4S7_1900_VAMCVLSSPHGR (UniProt Q5T4S7) | -0.0521 | -0.0658 |
| UBA7_P41226_68_NLVLMGVGSLTLHDPHPTCWSDLAAQFLLSEQDLER (UniProt P41226) | 0.0506 | 0.33 |
| UBAP2L_Q14157_68_NQDECVIALHDCNGDVNR (UniProt Q14157) | 0.132 | 0.00619 |
| UBE2J2_Q8N2K1_157_VFCELFPEVVEEIK (UniProt Q8N2K1) | 0.0262 | -0.0163 |
| TXNL1_O43396_135+137_AGCECLNESDEHGFDNCLR (UniProt O43396) | -0.344 | -0.462 |
| UBR1_Q8IWV7_574_CSTSFISSSK (UniProt Q8IWV7) | 0.00992 | 0.14 |
| UBE2I_P63279_138_QILLGIQELLNEPNIQDPAQAEAYTIYCQNR (UniProt P63279) | -0.0616 | 0.401 |
| UBR2_Q8IWV8_1332_VHPNEEDPRVPIMCWGSCAYTIQSIER (UniProt Q8IWV8) | -0.118 | -0.386 |
| UBL7_Q96S82_66_LQESVPDPELIDLIYCGR (UniProt Q96S82) | -0.109 | -0.328 |
| UBE2O_Q9C0C9_163_STDSQCGTVIDVNIDCAVK (UniProt Q9C0C9) | -0.131 | 0.325 |
| U2SURP_O15042_320_NCGFVAFMNR (UniProt O15042) | -0.0802 | -0.268 |
| UBE2F_Q969M7_50+52_EVAELEANLPCTCK (UniProt Q969M7) | -0.126 | -0.225 |
| UBA3_Q8TBC4_249_LPEHCIEYVR (UniProt Q8TBC4) | -0.0154 | -0.159 |

| Target | probe-labelled cysteine peptide fold change (10 µM) | probe-labelled cysteine peptide fold change (50 µM) |
| --- | --- | --- |
| UBR5_O95071_883_CDYEACR (UniProt O95071) | 0.0126 | -0.0696 |
| UACA_Q9BZF9_481_ALALECER (UniProt Q9BZF9) | 0.0247 | 0.164 |
| TXN_P10599_35_LVVVDFSATWCGPCK (UniProt P10599) | -0.765 | -0.357 |
| UBA1_P22314_748_CPHPLTFDVNNPLHLDYVMAAANLFAQTYGLTGSQDR (UniProt P22314) | 0.129 | 0.0777 |
| UBR4_Q5T4S7_2554_AVQCLNTSSK (UniProt Q5T4S7) | -0.27 | -0.543 |
| UBR5_O95071_1942_SHNDEHSDVLPVLDVCSLK (UniProt O95071) | -0.0432 | -0.39 |
| UBR2_Q8IWV8_336_ILCQVGLQEGPDGENSSLVDR (UniProt Q8IWV8) | 0.0457 | -0.118 |
| UBA2_Q9UBT2_161_KGVTECYECHPKPTQR (UniProt Q9UBT2) | -0.0118 | -0.377 |
| UBE2K_P61086_92_IWHPNISSVTGAICLDILK (UniProt P61086) | -0.124 | 0.58 |
| UBR2_Q8IWV8_1717_GNPLHLCK (UniProt Q8IWV8) | -0.263 | -1.31 |
| TXNRD1_Q16881_577_IICNTK (UniProt Q16881) | 0.836 | 0.459 |
| UBE2V1_Q13404_144_LPQPPEGQCYSN (UniProt Q13404) | -0.4 | -0.214 |
| UBE2V1_Q13404_71_IECGPKYPEAPPFVR (UniProt Q13404) | -0.0157 | -0.607 |
| TXNRD2_Q9NNW7_279_GCAPSR (UniProt Q9NNW7) | 0.0601 | 1.36 |
| UBE2S_Q16763_95_IFHPNVGANGEICVNVLK (UniProt Q16763) | -0.0588 | 0.0218 |
| UBR1_Q8IWV7_1101_EVLTCILCQEEQEVK (UniProt Q8IWV7) | -0.162 | 0.733 |
| UBA6_A0AVT1_625_GHTEVIVPHLTESYNSHRDPPEEEIPFCTLK | -0.0656 | 0.0224 |
| UBE3C_Q15386_252_ILLENVLKPLHFTYNSCPEGAR (UniProt Q15386) | -0.189 | -0.0816 |
| UBE4A_Q14139_79_SQQEICEQLNINHMIQR (UniProt Q14139) | -0.119 | -0.0744 |
| UBR2_Q8IWV8_1360_ILSDEDKPLFGPLPCR (UniProt Q8IWV8) | -0.203 | -0.412 |

4 entries drawn at random from the list so far:

| Target | probe-labelled cysteine peptide fold change (10 µM) | probe-labelled cysteine peptide fold change (50 µM) |
| --- | --- | --- |
| UBE2V1_Q13404_71_IECGPKYPEAPPFVR (UniProt Q13404) | -0.0157 | -0.607 |
| TXNRD2_Q9NNW7_279_GCAPSR (UniProt Q9NNW7) | 0.0601 | 1.36 |
| UBA2_Q9UBT2_161_KGVTECYECHPKPTQR (UniProt Q9UBT2) | -0.0118 | -0.377 |
| UBE2V1_Q13404_144_LPQPPEGQCYSN (UniProt Q13404) | -0.4 | -0.214 |
